# Results of single-concentration screens

Amino acid sequences for entries named in this document (tags omitted). Residues count along the entry.
UniProt Q4DA54, 1-478: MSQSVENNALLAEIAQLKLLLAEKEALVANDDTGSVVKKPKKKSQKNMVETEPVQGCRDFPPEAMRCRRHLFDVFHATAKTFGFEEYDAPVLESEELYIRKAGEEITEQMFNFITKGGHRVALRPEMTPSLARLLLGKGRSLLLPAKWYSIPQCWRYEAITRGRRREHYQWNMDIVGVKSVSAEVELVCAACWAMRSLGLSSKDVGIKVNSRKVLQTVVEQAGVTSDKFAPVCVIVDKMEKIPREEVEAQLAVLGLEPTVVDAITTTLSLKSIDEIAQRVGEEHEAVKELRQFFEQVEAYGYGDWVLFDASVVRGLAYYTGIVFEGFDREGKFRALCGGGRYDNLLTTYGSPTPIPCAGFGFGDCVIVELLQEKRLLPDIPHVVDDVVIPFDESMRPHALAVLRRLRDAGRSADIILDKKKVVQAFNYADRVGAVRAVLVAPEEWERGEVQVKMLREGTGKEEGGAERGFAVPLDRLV
UniProt A4I591, 1-473: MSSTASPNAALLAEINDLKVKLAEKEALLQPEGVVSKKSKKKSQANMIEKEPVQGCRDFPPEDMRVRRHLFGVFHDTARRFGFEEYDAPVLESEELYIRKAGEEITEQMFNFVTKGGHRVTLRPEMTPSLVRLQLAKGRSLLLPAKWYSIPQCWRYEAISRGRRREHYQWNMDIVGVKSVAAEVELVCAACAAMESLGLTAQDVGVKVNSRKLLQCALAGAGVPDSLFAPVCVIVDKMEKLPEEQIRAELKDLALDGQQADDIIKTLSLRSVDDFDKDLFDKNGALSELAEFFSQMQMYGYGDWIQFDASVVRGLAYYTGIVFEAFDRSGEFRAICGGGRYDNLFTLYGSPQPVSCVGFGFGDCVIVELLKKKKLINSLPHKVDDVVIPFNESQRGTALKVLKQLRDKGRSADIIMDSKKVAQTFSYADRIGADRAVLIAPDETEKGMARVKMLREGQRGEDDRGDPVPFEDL
UniProt Q8IDJ8, 1-583: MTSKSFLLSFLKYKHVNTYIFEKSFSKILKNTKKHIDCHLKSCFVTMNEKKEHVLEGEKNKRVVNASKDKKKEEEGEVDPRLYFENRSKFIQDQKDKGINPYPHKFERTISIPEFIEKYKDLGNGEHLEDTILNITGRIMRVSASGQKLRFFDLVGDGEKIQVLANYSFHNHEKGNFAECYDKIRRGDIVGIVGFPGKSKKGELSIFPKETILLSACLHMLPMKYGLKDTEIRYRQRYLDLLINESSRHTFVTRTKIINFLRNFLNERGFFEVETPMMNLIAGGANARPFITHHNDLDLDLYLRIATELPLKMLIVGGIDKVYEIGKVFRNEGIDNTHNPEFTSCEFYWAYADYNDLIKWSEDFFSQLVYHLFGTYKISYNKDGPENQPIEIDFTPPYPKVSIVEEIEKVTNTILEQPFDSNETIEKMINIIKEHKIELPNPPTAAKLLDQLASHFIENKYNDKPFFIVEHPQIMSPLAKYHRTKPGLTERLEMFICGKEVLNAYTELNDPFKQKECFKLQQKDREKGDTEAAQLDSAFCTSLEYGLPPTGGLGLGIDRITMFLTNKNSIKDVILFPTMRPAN
UniProt P9WNZ1, whole entry: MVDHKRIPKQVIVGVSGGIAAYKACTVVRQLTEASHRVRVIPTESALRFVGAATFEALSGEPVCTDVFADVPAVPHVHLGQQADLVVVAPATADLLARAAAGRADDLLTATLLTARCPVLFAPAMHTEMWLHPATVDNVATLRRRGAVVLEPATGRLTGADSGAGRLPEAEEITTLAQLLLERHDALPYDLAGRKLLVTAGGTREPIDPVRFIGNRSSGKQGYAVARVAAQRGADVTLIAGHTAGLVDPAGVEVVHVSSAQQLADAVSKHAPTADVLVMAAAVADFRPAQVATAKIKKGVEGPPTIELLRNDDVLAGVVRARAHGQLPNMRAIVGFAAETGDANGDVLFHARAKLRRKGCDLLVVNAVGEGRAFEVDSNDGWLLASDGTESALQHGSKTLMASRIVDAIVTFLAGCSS

Each number is a percent effect as filed. The controls that fix the scale are not given in the record; negative values are as filed. The compounds are a random part of those screened.

TcHisRS: 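Histidine-tRNA ligase, Trypanosoma cruzi CL Brener (UniProt Q4DA54). Enzyme assay of histidyl-tRNA synthetase; the read-out is not stated. Compounds at 30 µM. Higher reads as stronger inhibition (inferred: compounds with an IC50 in retests scored well above the rest). Of about 69,000 compounds tested this way, about 31 (0.045%) reached 50% or more in at least one test.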
LiHisRS: 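Enzyme assay of histidyl-tRNA synthetase; the read-out is not stated. Target: Histidine-tRNA ligase, Leishmania infantum (UniProt A4I591). Tested at 30 µM. Direction is inferred from retests: higher values go with stronger inhibition. The assay is labelled LdHisRS but filed under L. infantum. Size under these conditions: about 69,000 compounds, about 410 of them at 50% or above in at least one test.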
Toxoplasma: 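Assay of Toxoplasma gondii numbers, read through their beta-galactosidase reporter with a colour substrate. Compounds at 10 µM. The record gives no direction; the compounds picked for IC50 retests had high values, so higher reads as fewer parasites. Size under these conditions: about 67,000 compounds, about 260 of them at 50% or above in at least one test.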
PfKRS1: 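Enzyme assay of the cytosolic lysyl-tRNA synthetase in 384-well plates, read by luminescence. Target: Lysine-tRNA ligase, Plasmodium falciparum 3D7 (UniProt Q8IDJ8). Tested at 30 µM. Higher reads as stronger inhibition, judged from the few compounds that gave an IC50. Size under these conditions: about 69,000 compounds, about 49 of them at 50% or above in at least one test.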
CoaBC: 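Coenzyme A biosynthesis protein CoaBC, Mycobacterium tuberculosis (UniProt P9WNZ1). Enzyme assay of CoaBC with a phosphate dye (Biomol Green) read at 650 nm. Compounds at 30 µM. Higher reads as stronger inhibition, judged from the few compounds that gave an IC50. Most strong results did not repeat in a second test. About 67,000 compounds were tested under these conditions; 0.06% (about 40) showed 50% or more at least once.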

With Cc1c(C(=O)NS(=O)(=O)c2ccc(F)cc2)cnn1CC(C)C the screen gave TcHisRS: -0.4878%; LiHisRS: 1.695%; Toxoplasma: 6.724%; PfKRS1: 2.897%; CoaBC: 5.144%. CCOCc1nnc(NCc2cccnc2)o1 gave TcHisRS: 5.102%; LiHisRS: 17.14%; Toxoplasma: 5.501%; PfKRS1: 3.063%; CoaBC: 1.512%. For Cc1cnc(CNc2ncc(C)c(-c3cnn(C)c3)n2)cn1 the result was TcHisRS: 2.488%; LiHisRS: 6.993%; Toxoplasma: 9.786%; PfKRS1: 0.489%; CoaBC: 8.148%. c1cnc(N2CCOCC3(CCCN(c4nncs4)C3)C2)cn1 (stereo unspecified) read TcHisRS: 4.132%; LiHisRS: -3.636%; Toxoplasma: 1.486%; PfKRS1: -0.3848%; CoaBC: 3.782%.

With CC(=O)N1CCC(NC(C)c2cnn(-c3ccc(F)cc3F)c2C)CC1 (stereo unspecified) the screen gave TcHisRS: 7.263%; LiHisRS: -2.632%; Toxoplasma: 9.576%; PfKRS1: 0.6118%; CoaBC: -8.468%. CN1CCO[C@@H]2CN(C(=O)NCc3cccc(F)c3)CC[C@@H]2C1 gave TcHisRS: 5.291%; LiHisRS: 4.545%; PfKRS1: 1.093%; CoaBC: 1.481%. CC(C)CN(Cc1ccc(-n2cncn2)cc1)Cc1ccccn1 read TcHisRS: 14.43%; LiHisRS: 16.78%; Toxoplasma: 28.29%; PfKRS1: 5.612%; CoaBC: 5.679%. For Cc1ccccc1S(=O)(=O)N1CCc2c(ncnc2N(C)C)C1 the result was TcHisRS: 4.124%; LiHisRS: 14.29%; Toxoplasma: -5.246%; PfKRS1: 2.127%; CoaBC: 2.857%.

O=C(CCc1nc(-c2ccsc2)no1)NCC1CCN(C2CC2)C1 (stereo unspecified) read TcHisRS: -1.657%; LiHisRS: 7.254%; Toxoplasma: -5.278%; PfKRS1: -3.198%; CoaBC: -0.3822%. For CCc1[nH]ncc1C(=O)N1CCCC(n2ccnc2C)C1 (stereo unspecified) the result was TcHisRS: 3.458%; LiHisRS: 0%; Toxoplasma: -11.87%; PfKRS1: 0.8014%; CoaBC: -3.864%. N#Cc1ccnc(N2CCN(CC(O)c3c(F)cccc3F)CC2)c1 (stereo unspecified) gave TcHisRS: 1.058%; LiHisRS: -3.03%; Toxoplasma: 13.25%; PfKRS1: -5.015%; CoaBC: -3.353%. COCC1CN(C(=O)c2ccoc2C)Cc2nccn2C1 (stereo unspecified) gave TcHisRS: 4.918%; LiHisRS: 6.569%; Toxoplasma: -2.718%; PfKRS1: -9.044%; CoaBC: 1.813%.

COc1cccc(CN2CC[C@H](c3nnc(C)o3)C2)c1 read TcHisRS: -3.261%; LiHisRS: 6.757%; Toxoplasma: -7.918%; PfKRS1: -4.817%; CoaBC: -15.23%. [H][C@@]12CCN(Cc3cnn(C)c3)C[C@@]1([H])O[C@H](c1nc(C3CC3)cs1)C2 read Toxoplasma: -1.627%. COc1cccc2c1OCC(NC(=O)NCc1cccs1)C2 (stereo unspecified) read TcHisRS: 1.087%; LiHisRS: 22.86%; Toxoplasma: -0.553%; PfKRS1: 4.283%; CoaBC: 5.803%. Result for COc1ccc(O[C@H]2COCCN(Cc3c[nH]c4ccccc34)C2)cc1 was TcHisRS: 16.83%; LiHisRS: 19.44%; Toxoplasma: 17.17%; PfKRS1: 4.88%; CoaBC: 0.6772%.

For reference, 2 entries once more:

{"structure": "[H][C@@]12CCN(Cc3cnn(C)c3)C[C@@]1([H])O[C@H](c1nc(C3CC3)cs1)C2", "Toxoplasma": -1.627}
{"structure": "COc1ccc(O[C@H]2COCCN(Cc3c[nH]c4ccccc34)C2)cc1", "TcHisRS": 16.83, "LiHisRS": 19.44, "Toxoplasma": 17.17, "PfKRS1": 4.88, "CoaBC": 0.6772}

From ChEMBL document CHEMBL3988442, “University of Dundee, Small-Polar-MMV Screening Library” (2021).